Paper PMC6406935
Results are given in words; binding and its absence hold for the method and conditions named. In cells and extracts the contact can be indirect. Some binding calls cover weakened binding; strength is not graded here.

Chains of the proteins cited; added tags and fusions are not shown.
UniProt P03372: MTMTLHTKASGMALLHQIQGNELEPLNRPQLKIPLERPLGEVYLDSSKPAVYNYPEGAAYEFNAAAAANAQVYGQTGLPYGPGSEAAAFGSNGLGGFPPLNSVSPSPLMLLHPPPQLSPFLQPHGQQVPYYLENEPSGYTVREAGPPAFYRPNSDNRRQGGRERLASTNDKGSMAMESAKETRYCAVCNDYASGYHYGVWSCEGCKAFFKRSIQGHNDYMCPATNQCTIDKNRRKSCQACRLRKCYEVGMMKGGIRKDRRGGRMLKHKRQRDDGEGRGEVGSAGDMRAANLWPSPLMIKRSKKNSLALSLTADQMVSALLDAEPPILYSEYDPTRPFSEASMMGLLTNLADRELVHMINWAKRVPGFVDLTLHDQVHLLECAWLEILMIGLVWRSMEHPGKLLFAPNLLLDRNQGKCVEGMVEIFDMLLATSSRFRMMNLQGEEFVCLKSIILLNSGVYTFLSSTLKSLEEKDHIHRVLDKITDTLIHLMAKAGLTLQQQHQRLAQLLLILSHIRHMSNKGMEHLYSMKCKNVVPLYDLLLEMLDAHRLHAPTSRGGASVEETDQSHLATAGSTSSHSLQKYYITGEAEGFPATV
UniProt Q04206: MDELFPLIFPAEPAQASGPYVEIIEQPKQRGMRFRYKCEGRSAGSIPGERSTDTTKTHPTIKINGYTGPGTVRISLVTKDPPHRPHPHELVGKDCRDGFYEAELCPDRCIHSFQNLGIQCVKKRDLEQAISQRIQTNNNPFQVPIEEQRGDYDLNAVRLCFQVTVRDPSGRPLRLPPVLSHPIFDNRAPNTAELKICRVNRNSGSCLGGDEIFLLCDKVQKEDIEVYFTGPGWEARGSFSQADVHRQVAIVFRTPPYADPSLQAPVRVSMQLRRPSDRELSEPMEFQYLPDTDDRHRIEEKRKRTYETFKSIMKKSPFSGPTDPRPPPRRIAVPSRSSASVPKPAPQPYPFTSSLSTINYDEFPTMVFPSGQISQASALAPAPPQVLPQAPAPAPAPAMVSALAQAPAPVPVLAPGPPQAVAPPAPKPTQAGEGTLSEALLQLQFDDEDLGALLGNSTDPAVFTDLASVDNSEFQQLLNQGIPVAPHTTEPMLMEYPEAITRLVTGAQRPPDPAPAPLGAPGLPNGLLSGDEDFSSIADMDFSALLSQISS
UniProt P40763: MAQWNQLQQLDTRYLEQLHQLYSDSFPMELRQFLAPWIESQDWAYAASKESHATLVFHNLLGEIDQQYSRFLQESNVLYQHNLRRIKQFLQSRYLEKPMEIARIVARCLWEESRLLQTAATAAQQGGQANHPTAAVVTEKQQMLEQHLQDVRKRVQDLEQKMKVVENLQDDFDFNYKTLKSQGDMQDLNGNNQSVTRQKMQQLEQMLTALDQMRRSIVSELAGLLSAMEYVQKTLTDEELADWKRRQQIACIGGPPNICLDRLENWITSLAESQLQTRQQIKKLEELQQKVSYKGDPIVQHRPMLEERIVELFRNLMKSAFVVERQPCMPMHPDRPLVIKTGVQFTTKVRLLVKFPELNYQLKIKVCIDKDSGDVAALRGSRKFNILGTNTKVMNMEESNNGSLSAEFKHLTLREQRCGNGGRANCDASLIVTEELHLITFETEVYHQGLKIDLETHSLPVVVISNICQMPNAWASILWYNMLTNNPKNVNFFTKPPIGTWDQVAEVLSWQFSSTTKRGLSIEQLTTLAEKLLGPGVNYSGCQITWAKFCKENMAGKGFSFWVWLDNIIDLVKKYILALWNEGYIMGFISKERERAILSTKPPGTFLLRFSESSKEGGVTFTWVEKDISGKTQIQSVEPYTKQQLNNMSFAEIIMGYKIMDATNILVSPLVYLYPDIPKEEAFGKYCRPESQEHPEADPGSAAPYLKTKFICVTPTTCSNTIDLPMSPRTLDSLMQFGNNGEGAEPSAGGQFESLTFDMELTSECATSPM

Biological target: estrogen receptor alpha (human (endogenous in MCF-7)) (UniProt P03372)
Assay: co-IP; IP followed by Western blotting from MCF-7 cells, cultured alone or co-cultured with conditioned KG-1 macrophages, also under tamoxifen treatment; which protein was precipitated is not given

binding | Substance
binds | NF-κB subunit p65 (from UniProt Q04206 1-551)
binds | signal transducer and activator of transcription 3 (from UniProt P40763 1-770)
